Experimental findings from article PMC3953482, “Fha Interaction with Phosphothreonine of TssL Activates Type VI Secretion in Agrobacterium tumefaciens” (PLoS Pathogens, 2014) are described below.

For experiment [1], the target named is Fha7-267^WT (truncated His-tagged Fha with the intact FHA domain) (Agrobacterium tumefaciens C58). As to the kind of experiment: condition: 200 µM protein in the sample cell and 6 mM peptide in the injection syringe; ITC; MicroCal iTC200; 200 µM Fha protein in the sample cell, 6 mM peptide in the injection syringe, 25 injections, 25°C, 50 mM Tris-HCl (pH 8.0), 150 mM NaCl; One Set of Sites model with the N value fixed at 1; both purified.

In experiment [2] the target is Fha7-267^R30AS46A (truncated Fha with a mutated FHA domain) (Agrobacterium tumefaciens C58). The description is as above.

Results are given in words; binding and its absence hold for the method and conditions named.

As for VSTQEL (phosphothreonine (pT; 3rd residue of the peptide)) [6 mer phosphorylated CHK2 peptide (VSpTQEL)], the binding entry in experiment [1] is listed as “no binding”.
For the molecule DLPTVVEI (phosphothreonine (pT, Thr 14 of TssL; 4th residue of the peptide)) [8 mer phosphorylated TssL peptide (DLPpTVVEI)], the binding result in experiment [2] is listed as “no binding”.
